Reference: the supplement of paper PMC9454738
Structures can show the parent of a compound that is named as a salt. This is one part of the list. This data set is noisy: repeats of one test often differ as much as different tests do.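 Test systems: triple-negative MDA-MB-231 breast cancer cells and their brain-metastatic MDA-MB-231BRM derivative, each stably carrying empty vector, full-length GLI1 or truncated tGLI1. Viability after 48 h was read by CellTiter-Blue and expressed against 1% DMSO vehicle. A compound was tGLI1-selective if it lowered viability 20% more in tGLI1 cells than in vector and GLI1 cells.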

Key:
Assay in all cases: cell viability relative to vehicle (DMSO) control (fraction); higher = more viable cells (less growth inhibition)
Settings in all cases: treatment time 48 h
MDA-MB-231 GLI1 = test system: MDA-MB-231 GLI1
MDA-MB-231 Vector = test system: MDA-MB-231 Vector
MDA-MB-231 tGLI1 = test system: MDA-MB-231 tGLI1
MDA-MB-231BRM GLI1 = test system: MDA-MB-231BRM GLI1
MDA-MB-231BRM Vector = test system: MDA-MB-231BRM Vector
MDA-MB-231BRM tGLI1 = test system: MDA-MB-231BRM tGLI1

**Q.** What does the source list for `O=C(Nc1cccc(Cl)c1)Nc1ncc(CCNc2ncnc3ccsc23)s1` [SNS-314 Mesylate]?
**A.** cell viability (MDA-MB-231 GLI1; 0.05 µM): 1.09; cell viability (MDA-MB-231 GLI1; 0.5 µM): 1.21; cell viability (MDA-MB-231 GLI1; 5 µM): 1.01; cell viability (MDA-MB-231 Vector; 0.05 µM): 1.09; cell viability (MDA-MB-231 Vector; 0.5 µM): 1; cell viability (MDA-MB-231 Vector; 5 µM): 0.752; cell viability (MDA-MB-231 tGLI1; 0.05 µM): 0.972; cell viability (MDA-MB-231 tGLI1; 0.5 µM): 1.14; cell viability (MDA-MB-231 tGLI1; 5 µM): 0.681; cell viability (MDA-MB-231BRM GLI1; 0.05 µM): 0.969; cell viability (MDA-MB-231BRM GLI1; 0.5 µM): 0.969; cell viability (MDA-MB-231BRM GLI1; 5 µM): 0.735; cell viability (MDA-MB-231BRM Vector; 0.05 µM): 0.91; cell viability (MDA-MB-231BRM Vector; 0.5 µM): 0.898; cell viability (MDA-MB-231BRM Vector; 5 µM): 0.771; cell viability (MDA-MB-231BRM tGLI1; 0.05 µM): 0.923; cell viability (MDA-MB-231BRM tGLI1; 0.5 µM): 0.957; cell viability (MDA-MB-231BRM tGLI1; 5 µM): 0.655

**Q.** `Nc1nccc(Oc2ccc(NC(=O)c3c[nH]cc(-c4ccc(F)cc4)c3=O)cc2F)c1Cl` was tested. Which cell viability (MDA-MB-231 GLI1; 0.05 µM) did it give?
**A.** 1.44

**Q.** What about the cell viability (MDA-MB-231 GLI1; 0.5 µM) of the same compound?
**A.** 1.52

**Q.** What about the cell viability (MDA-MB-231 GLI1; 5 µM) of the same compound?
**A.** 1.44

**Q.** And the cell viability (MDA-MB-231 Vector; 0.05 µM)?
**A.** 1.92

**Q.** What about the cell viability (MDA-MB-231 Vector; 0.5 µM) of the same compound?
**A.** 1.22

**Q.** And the cell viability (MDA-MB-231 Vector; 5 µM)?
**A.** 1.09

**Q.** And the cell viability (MDA-MB-231 tGLI1; 0.05 µM)?
**A.** 1.16

**Q.** What about the cell viability (MDA-MB-231 tGLI1; 0.5 µM) of the same compound?
**A.** 0.826

**Q.** What about the cell viability (MDA-MB-231 tGLI1; 5 µM) of the same compound?
**A.** 1.37

**Q.** And the cell viability (MDA-MB-231BRM GLI1; 0.05 µM)?
**A.** 1.09

**Q.** And the cell viability (MDA-MB-231BRM GLI1; 0.5 µM)?
**A.** 1.11

**Q.** What about the cell viability (MDA-MB-231BRM GLI1; 5 µM) of the same compound?
**A.** 0.947

**Q.** What about the cell viability (MDA-MB-231BRM Vector; 0.05 µM) of the same compound?
**A.** 0.681

**Q.** What about the cell viability (MDA-MB-231BRM Vector; 0.5 µM) of the same compound?
**A.** 0.986

**Q.** And the cell viability (MDA-MB-231BRM Vector; 5 µM)?
**A.** 1.03

**Q.** And the cell viability (MDA-MB-231BRM tGLI1; 0.05 µM)?
**A.** 1.03

**Q.** What about the cell viability (MDA-MB-231BRM tGLI1; 0.5 µM) of the same compound?
**A.** 1.08

**Q.** And the cell viability (MDA-MB-231BRM tGLI1; 5 µM)?
**A.** 0.94

**Q.** Which results are given for `C#Cc1cccc(Nc2ncnc3cc4c(cc23)OCCOCCOCCO4)c1` [Icotinib]?
**A.** cell viability (MDA-MB-231 GLI1; 0.05 µM): 1.15; cell viability (MDA-MB-231 GLI1; 0.5 µM): 1.52; cell viability (MDA-MB-231 GLI1; 5 µM): 0.96; cell viability (MDA-MB-231 Vector; 0.05 µM): 1.03; cell viability (MDA-MB-231 Vector; 0.5 µM): 1.22; cell viability (MDA-MB-231 Vector; 5 µM): 1.18; cell viability (MDA-MB-231 tGLI1; 0.05 µM): 1.09; cell viability (MDA-MB-231 tGLI1; 0.5 µM): 1.22; cell viability (MDA-MB-231 tGLI1; 5 µM): 1.07; cell viability (MDA-MB-231BRM GLI1; 0.05 µM): 1.1; cell viability (MDA-MB-231BRM GLI1; 0.5 µM): 0.907; cell viability (MDA-MB-231BRM GLI1; 5 µM): 0.891; cell viability (MDA-MB-231BRM Vector; 0.05 µM): 1.13; cell viability (MDA-MB-231BRM Vector; 0.5 µM): 1.01; cell viability (MDA-MB-231BRM Vector; 5 µM): 0.895; cell viability (MDA-MB-231BRM tGLI1; 0.05 µM): 1; cell viability (MDA-MB-231BRM tGLI1; 0.5 µM): 0.939; cell viability (MDA-MB-231BRM tGLI1; 5 µM): 0.888

**Q.** `O=S(=O)(c1cccc2cnccc12)N1CCCNCC1` [Fasudil (HA-1077) HCl] was tested. Which cell viability (MDA-MB-231 GLI1; 0.05 µM) did it give?
**A.** 1.39

**Q.** And the cell viability (MDA-MB-231 GLI1; 0.5 µM)?
**A.** 1.28

**Q.** What about the cell viability (MDA-MB-231 GLI1; 5 µM) of the same compound?
**A.** 1.54

**Q.** What about the cell viability (MDA-MB-231 Vector; 0.05 µM) of the same compound?
**A.** 1.95

**Q.** And the cell viability (MDA-MB-231 Vector; 0.5 µM)?
**A.** 1.35

**Q.** And the cell viability (MDA-MB-231 Vector; 5 µM)?
**A.** 1.39

**Q.** What about the cell viability (MDA-MB-231 tGLI1; 0.05 µM) of the same compound?
**A.** 1.26

**Q.** And the cell viability (MDA-MB-231 tGLI1; 0.5 µM)?
**A.** 1.36

**Q.** What about the cell viability (MDA-MB-231 tGLI1; 5 µM) of the same compound?
**A.** 1.5

**Q.** What about the cell viability (MDA-MB-231BRM GLI1; 0.05 µM) of the same compound?
**A.** 1.21

**Q.** What about the cell viability (MDA-MB-231BRM GLI1; 0.5 µM) of the same compound?
**A.** 1.22

**Q.** What about the cell viability (MDA-MB-231BRM GLI1; 5 µM) of the same compound?
**A.** 1.03

**Q.** What about the cell viability (MDA-MB-231BRM Vector; 0.05 µM) of the same compound?
**A.** 1.15

**Q.** And the cell viability (MDA-MB-231BRM Vector; 0.5 µM)?
**A.** 1.1

**Q.** And the cell viability (MDA-MB-231BRM Vector; 5 µM)?
**A.** 1.07

**Q.** What about the cell viability (MDA-MB-231BRM tGLI1; 0.05 µM) of the same compound?
**A.** 1.01

**Q.** And the cell viability (MDA-MB-231BRM tGLI1; 0.5 µM)?
**A.** 0.67

**Q.** What about the cell viability (MDA-MB-231BRM tGLI1; 5 µM) of the same compound?
**A.** 1.01

**Q.** What does the source list for `O=c1cc(N2CCOCC2)oc2c(-c3cccc4c3sc3ccccc34)cccc12`?
**A.** cell viability (MDA-MB-231 GLI1; 0.05 µM): 1.37; cell viability (MDA-MB-231 GLI1; 0.5 µM): 1.16; cell viability (MDA-MB-231 GLI1; 5 µM): 0.555; cell viability (MDA-MB-231 Vector; 0.05 µM): 1.18; cell viability (MDA-MB-231 Vector; 0.5 µM): 1.22; cell viability (MDA-MB-231 Vector; 5 µM): 0.672; cell viability (MDA-MB-231 tGLI1; 0.05 µM): 1.45; cell viability (MDA-MB-231 tGLI1; 0.5 µM): 1.21; cell viability (MDA-MB-231 tGLI1; 5 µM): 0.618; cell viability (MDA-MB-231BRM GLI1; 0.05 µM): 0.991; cell viability (MDA-MB-231BRM GLI1; 0.5 µM): 0.943; cell viability (MDA-MB-231BRM GLI1; 5 µM): 0.784; cell viability (MDA-MB-231BRM Vector; 0.05 µM): 1.06; cell viability (MDA-MB-231BRM Vector; 0.5 µM): 1.06; cell viability (MDA-MB-231BRM Vector; 5 µM): 0.783; cell viability (MDA-MB-231BRM tGLI1; 0.05 µM): 1.07; cell viability (MDA-MB-231BRM tGLI1; 0.5 µM): 0.992; cell viability (MDA-MB-231BRM tGLI1; 5 µM): 0.851

**Q.** `O=C(CCCCCCC(=O)Nc1ccccc1)NO` [Vorinostat (SAHA)] was tested. Which cell viability (MDA-MB-231 GLI1; 0.05 µM) did it give?
**A.** 1.33

**Q.** And the cell viability (MDA-MB-231 GLI1; 0.5 µM)?
**A.** 1.09

**Q.** And the cell viability (MDA-MB-231 GLI1; 5 µM)?
**A.** 0.13

**Q.** What about the cell viability (MDA-MB-231 Vector; 0.05 µM) of the same compound?
**A.** 0.855

**Q.** And the cell viability (MDA-MB-231 Vector; 0.5 µM)?
**A.** 1.4

**Q.** And the cell viability (MDA-MB-231 Vector; 5 µM)?
**A.** -0.337

**Q.** And the cell viability (MDA-MB-231 tGLI1; 0.05 µM)?
**A.** 1.13

**Q.** What about the cell viability (MDA-MB-231 tGLI1; 0.5 µM) of the same compound?
**A.** 1.05

**Q.** And the cell viability (MDA-MB-231 tGLI1; 5 µM)?
**A.** 0.0834

**Q.** What about the cell viability (MDA-MB-231BRM GLI1; 0.05 µM) of the same compound?
**A.** 0.961

**Q.** What about the cell viability (MDA-MB-231BRM GLI1; 0.5 µM) of the same compound?
**A.** 0.95

**Q.** And the cell viability (MDA-MB-231BRM GLI1; 5 µM)?
**A.** 0.83

**Q.** And the cell viability (MDA-MB-231BRM Vector; 0.05 µM)?
**A.** 1.06

**Q.** What about the cell viability (MDA-MB-231BRM Vector; 0.5 µM) of the same compound?
**A.** 0.95

**Q.** And the cell viability (MDA-MB-231BRM Vector; 5 µM)?
**A.** 0.953

**Q.** What about the cell viability (MDA-MB-231BRM tGLI1; 0.05 µM) of the same compound?
**A.** 1.03

**Q.** And the cell viability (MDA-MB-231BRM tGLI1; 0.5 µM)?
**A.** 0.995

**Q.** And the cell viability (MDA-MB-231BRM tGLI1; 5 µM)?
**A.** 0.873

**Q.** For `Cn1cc(C2=C(c3ccc(Cl)cc3Cl)C(=O)NC2=O)c2ccccc21`, which cell viability (MDA-MB-231 GLI1; 0.05 µM) is on record?
**A.** 1.5

**Q.** What about the cell viability (MDA-MB-231 GLI1; 0.5 µM) of the same compound?
**A.** 1.76

**Q.** And the cell viability (MDA-MB-231 GLI1; 5 µM)?
**A.** 1.4

**Q.** And the cell viability (MDA-MB-231 Vector; 0.05 µM)?
**A.** 1.41

**Q.** What about the cell viability (MDA-MB-231 Vector; 0.5 µM) of the same compound?
**A.** 1.31

**Q.** What about the cell viability (MDA-MB-231 Vector; 5 µM) of the same compound?
**A.** 1.02

**Q.** What about the cell viability (MDA-MB-231 tGLI1; 0.05 µM) of the same compound?
**A.** 1.21

**Q.** And the cell viability (MDA-MB-231 tGLI1; 0.5 µM)?
**A.** 1.4

**Q.** What about the cell viability (MDA-MB-231 tGLI1; 5 µM) of the same compound?
**A.** 1.05

**Q.** What about the cell viability (MDA-MB-231BRM GLI1; 0.05 µM) of the same compound?
**A.** 0.89

**Q.** What about the cell viability (MDA-MB-231BRM GLI1; 0.5 µM) of the same compound?
**A.** 0.959

**Q.** What about the cell viability (MDA-MB-231BRM GLI1; 5 µM) of the same compound?
**A.** 0.895

**Q.** And the cell viability (MDA-MB-231BRM Vector; 0.05 µM)?
**A.** 0.944

**Q.** What about the cell viability (MDA-MB-231BRM Vector; 0.5 µM) of the same compound?
**A.** 0.976

**Q.** What about the cell viability (MDA-MB-231BRM Vector; 5 µM) of the same compound?
**A.** 0.981

**Q.** And the cell viability (MDA-MB-231BRM tGLI1; 0.05 µM)?
**A.** 0.958

**Q.** And the cell viability (MDA-MB-231BRM tGLI1; 0.5 µM)?
**A.** 0.885

**Q.** What about the cell viability (MDA-MB-231BRM tGLI1; 5 µM) of the same compound?
**A.** 0.954
